# This is one part of the list. Single values are uncertain, as repeats are few or missing.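 Cells were imaged in 1,536-well plates, and nuclei stained with an antibody against cleaved PARP were counted against all DNA-stained nuclei to give the apoptosis fraction. Screening doses were chosen to leave most cells alive, and resting and induced cleaved-PARP levels differ strongly between cell lines.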
# What was measured:
# Experiment in all cases: cleaved PARP positive nuclei fraction relative to DMSO control; melanoma cells; higher = more apoptosis
# Settings in all cases: library dose: low library concentration; 72 h
# MZ2-MEL = test system: MZ2-MEL
# MeWo = test system: MeWo
# RPMI7951 = test system: RPMI7951
# RVH-421 = test system: RVH-421
# SkMel28 = test system: SkMel28
# SkMel2 = test system: SkMel2
# SkMel30 = test system: SkMel30
# SkMel5 = test system: SkMel5
# UACC257 = test system: UACC257
# UACC62 = test system: UACC62
Structure (SMILES),cleaved PARP positive nuclei fraction (MZ2-MEL),cleaved PARP positive nuclei fraction (MeWo),cleaved PARP positive nuclei fraction (RPMI7951),cleaved PARP positive nuclei fraction (RVH-421),cleaved PARP positive nuclei fraction (SkMel28),cleaved PARP positive nuclei fraction (SkMel2),cleaved PARP positive nuclei fraction (SkMel30),cleaved PARP positive nuclei fraction (SkMel5),cleaved PARP positive nuclei fraction (UACC257),cleaved PARP positive nuclei fraction (UACC62)
"Cn1cc(C2=C(c3cn(C4CCN(Cc5ccccn5)CC4)c4ccccc34)C(=O)NC2=O)c2ccccc21 [Enzastaurin] + Cn1cc(/C=C2\C(=O)Nc3cccnc32)c2ccccc21 [GW441756] (first compound 0.8 µM, partner dose 0.4 µM)",77.7%,40.3%,66.6%,38%,187%,127%,88.9%,78.5%,150%,169%
"CNC(=O)c1cc(Oc2ccc(NC(=O)Nc3ccc(Cl)c(C(F)(F)F)c3)cc2)ccn1 [sorafenib] + C/C(O)=C(\C#N)C(=O)Nc1cc(Br)ccc1Br [LFM-A13] (first compound 0.4 µM, partner dose 2 µM)",143%,152%,158%,341%,109%,69%,192%,75.6%,171%,135%
"Cn1cc(C2=C(c3cn(C4CCN(Cc5ccccn5)CC4)c4ccccc34)C(=O)NC2=O)c2ccccc21 [Enzastaurin] + NCC(=O)Nc1ccc(-n2nc(C(F)(F)F)cc2-c2ccc3c(ccc4ccccc43)c2)cc1 [OSU03012] (first compound 0.8 µM, partner dose 1 µM)",49.5%,52.1%,111%,100%,62.9%,111%,107%,71.8%,84.7%,51.7%
"C[As](C)SC[C@H](NC(=O)CC[C@H](N)C(=O)O)C(=O)NCC(=O)O [Darinaparsin] + CO[C@@H]1[C@H](N(C)C(=O)c2ccccc2)C[C@H]2O[C@]1(C)n1c3ccccc3c3c4c(c5c6ccccc6n2c5c31)C(=O)NC4 [Midostaurin] (first compound 0.4 µM, partner dose 0.08 µM)",99.9%,79.7%,108%,74.1%,76.6%,210%,160%,70.3%,97.9%,31.2%
"Cn1c(=O)n(-c2ccc(C(C)(C)C#N)cc2)c2c3cc(-c4cnc5ccccc5c4)ccc3ncc21 + O=C(Oc1ccc([N+](=O)[O-])cc1)N1CCC(C(O)(c2ccc3c(c2)OCO3)c2ccc3c(c2)OCO3)CC1 [JZL184] (first compound 0.004 µM, partner dose 1 µM)",50.3%,81.7%,24.4%,54.6%,215%,94.8%,511%,74.1%,77.1%,218%
"N.N.[Cl][Pt][Cl] [cisplatin] + Cn1cncc1[C@@](N)(c1ccc(Cl)cc1)c1ccc2c(c1)c(-c1cccc(Cl)c1)cc(=O)n2C [tipifarnib] (first compound 1.6 µM, partner dose 0.01 µM)",87.7%,52.2%,98.2%,129%,54.9%,99%,127%,142%,67.2%,78.4%
"Cn1cnc2c(F)c(Nc3ccc(Br)cc3Cl)c(C(=O)NOCCO)cc21 [selumetinib] + O=C(Oc1ccc([N+](=O)[O-])cc1)N1CCC(C(O)(c2ccc3c(c2)OCO3)c2ccc3c(c2)OCO3)CC1 [JZL184] (first compound 0.015 µM, partner dose 1 µM)",247%,179%,46.6%,84%,126%,60.4%,102%,158%,65.4%,1050%
"Cc1ccc(Nc2nccc(N(C)c3ccc4c(C)n(C)nc4c3)n2)cc1S(N)(=O)=O [Pazopanib] + C/C(O)=C(\C#N)C(=O)Nc1cc(Br)ccc1Br [LFM-A13] (first compound 0.4 µM, partner dose 2 µM)",97.6%,22.5%,141%,203%,170%,61.8%,31.3%,32.6%,202%,144%
"C[As](C)SC[C@H](NC(=O)CC[C@H](N)C(=O)O)C(=O)NCC(=O)O [Darinaparsin] + Cc1ccc(NC(=O)c2cccc(N(C)C)c2)cc1NC(=O)c1ccc(O)cc1 [ZM336372] (first compound 0.4 µM, partner dose 2 µM)",92%,53.4%,138%,96.6%,126%,61%,99%,205%,251%,225%
"O=C(Nc1cc(C(F)(F)F)cc(C(F)(F)F)c1)c1cc(Cl)ccc1O + Cc1cc(SCc2sc(-c3ccc(C(F)(F)F)c(F)c3)nc2C)ccc1OCC(=O)O [GW0742] (first compound 0.016 µM, partner dose 2 µM)",3650%,97.1%,178%,129%,70.9%,56%,30.8%,33%,145%,840%
"N.N.[Cl][Pt][Cl] [cisplatin] + Cc1cc(N2CCOCC2)cc2[nH]c(-c3c(NC[C@@H](O)c4cccc(Cl)c4)cc[nH]c3=O)nc12 [BMS536924] (first compound 1.6 µM, partner dose 0.2 µM)",284%,108%,47.1%,46.5%,108%,100%,73.9%,94.3%,116%,164%
"Cn1sc(=O)n(Cc2ccccc2)c1=O + C/C(O)=C(\C#N)C(=O)Nc1cc(Br)ccc1Br [LFM-A13] (first compound 0.4 µM, partner dose 2 µM)",99.2%,95.7%,72.4%,125%,86.6%,117%,163%,40.3%,105%,72.1%
"N.N.[Cl][Pt][Cl] [cisplatin] + Cc1cc([N+](=O)[O-])ccc1NS(=O)(=O)c1cc(Cl)ccc1Cl [FH535] (first compound 1.6 µM, partner dose 1 µM)",165%,204%,72%,72.9%,113%,89.7%,32.5%,81.9%,48%,141%
"Cn1cc(C2=C(c3cn(C4CCN(Cc5ccccn5)CC4)c4ccccc34)C(=O)NC2=O)c2ccccc21 [Enzastaurin] + CO[C@@H]1[C@H](N(C)C(=O)c2ccccc2)C[C@H]2O[C@]1(C)n1c3ccccc3c3c4c(c5c6ccccc6n2c5c31)C(=O)NC4 [Midostaurin] (first compound 0.8 µM, partner dose 0.08 µM)",104%,141%,72%,68.5%,53.9%,171%,138%,158%,62.4%,96.8%
"CC(=O)O[C@@]12CO[C@@H]1C[C@H](O)[C@@]1(C)C(=O)[C@H](O)C3=C(C)[C@@H](OC(=O)[C@H](O)[C@@H](NC(=O)OC(C)(C)C)c4ccccc4)C[C@@](O)([C@@H](OC(=O)c4ccccc4)[C@H]21)C3(C)C [Docetaxel] + O=C(Oc1ccc([N+](=O)[O-])cc1)N1CCC(C(O)(c2ccc3c(c2)OCO3)c2ccc3c(c2)OCO3)CC1 [JZL184] (first compound 0.0001 µM, partner dose 1 µM)",522%,1430%,210%,51.1%,1020%,1050%,93%,89%,1310%,609%
"Cn1cc(C2=C(c3cn(C4CCN(Cc5ccccn5)CC4)c4ccccc34)C(=O)NC2=O)c2ccccc21 [Enzastaurin] + COC(=O)c1sccc1S(=O)(=O)Nc1ccc(Nc2ccccc2)cc1OC [GSK0660] (first compound 0.8 µM, partner dose 1 µM)",104%,171%,222%,66.2%,244%,117%,75.4%,77.6%,76.3%,58.1%
"C[C@]1(O)C[C@@H](c2nc(-c3ccc4ccc(-c5ccccc5)nc4c3)c3c(N)nccn32)C1 + Cc1cc(SCc2sc(-c3ccc(C(F)(F)F)c(F)c3)nc2C)ccc1OCC(=O)O [GW0742] (first compound 0.4 µM, partner dose 2 µM)",95.1%,146%,80.2%,89.9%,201%,159%,103%,88.5%,142%,166%
"O=C(O)c1ccc2c(c1)nc(Nc1cccc(Cl)c1)c1ccncc12 + O=C(Oc1ccc([N+](=O)[O-])cc1)N1CCC(C(O)(c2ccc3c(c2)OCO3)c2ccc3c(c2)OCO3)CC1 [JZL184] (first compound 0.4 µM, partner dose 1 µM)",149%,88.8%,37.9%,130%,61.5%,82.5%,81.9%,144%,37.2%,120%
"Cn1cc(C2=C(c3cn(C4CCN(Cc5ccccn5)CC4)c4ccccc34)C(=O)NC2=O)c2ccccc21 [Enzastaurin] + Cc1cc(N2CCOCC2)cc2[nH]c(-c3c(NC[C@@H](O)c4cccc(Cl)c4)cc[nH]c3=O)nc12 [BMS536924] (first compound 0.8 µM, partner dose 0.2 µM)",99.6%,139%,96.2%,97.4%,61%,163%,71.9%,72.2%,96.3%,114%
"C[C@@H](N)c1ccc(C(=O)Nc2ccnc3[nH]ccc23)cc1 + C/C(O)=C(\C#N)C(=O)Nc1cc(Br)ccc1Br [LFM-A13] (first compound 0.4 µM, partner dose 2 µM)",138%,90.6%,181%,85.2%,85.3%,92.8%,41.4%,202%,54.5%,86.6%
"C[As](C)SC[C@H](NC(=O)CC[C@H](N)C(=O)O)C(=O)NCC(=O)O [Darinaparsin] + CN(NC(=O)CC(=O)NN(C)C(=S)c1ccccc1)C(=S)c1ccccc1 [STA4783] (first compound 0.4 µM, partner dose 0.006 µM)",70.8%,331%,114%,76.9%,151%,61.4%,71.4%,70.4%,122%,87.4%

# Single entries from the entries so far.
# In cleaved PARP positive nuclei fraction (SkMel28), C[As](C)SC[C@H](NC(=O)CC[C@H](N)C(=O)O)C(=O)NCC(=O)O [Darinaparsin] + CO[C@@H]1[C@H](N(C)C(=O)c2ccccc2)C[C@H]2O[C@]1(C)n1c3ccccc3c3c4c(c5c6ccccc6n2c5c31)C(=O)NC4 [Midostaurin] (first compound 0.4 µM, partner dose 0.08 µM) is listed with 76.6%
# In cleaved PARP positive nuclei fraction (MeWo), CC(=O)O[C@@]12CO[C@@H]1C[C@H](O)[C@@]1(C)C(=O)[C@H](O)C3=C(C)[C@@H](OC(=O)[C@H](O)[C@@H](NC(=O)OC(C)(C)C)c4ccccc4)C[C@@](O)([C@@H](OC(=O)c4ccccc4)[C@H]21)C3(C)C [Docetaxel] + O=C(Oc1ccc([N+](=O)[O-])cc1)N1CCC(C(O)(c2ccc3c(c2)OCO3)c2ccc3c(c2)OCO3)CC1 [JZL184] (first compound 0.0001 µM, partner dose 1 µM) is listed with 1430%
